Data: paper PMC11166663
No constants are given. Whether binding was seen depends on the method and setting. Binding seen in cells or lysates may run through a third protein. Some results given as binding are weak or reduced against the parent protein; the word gives no strength.

Amino acid sequences for entries named in this document (tags omitted).
UniProt Q9Y4B6: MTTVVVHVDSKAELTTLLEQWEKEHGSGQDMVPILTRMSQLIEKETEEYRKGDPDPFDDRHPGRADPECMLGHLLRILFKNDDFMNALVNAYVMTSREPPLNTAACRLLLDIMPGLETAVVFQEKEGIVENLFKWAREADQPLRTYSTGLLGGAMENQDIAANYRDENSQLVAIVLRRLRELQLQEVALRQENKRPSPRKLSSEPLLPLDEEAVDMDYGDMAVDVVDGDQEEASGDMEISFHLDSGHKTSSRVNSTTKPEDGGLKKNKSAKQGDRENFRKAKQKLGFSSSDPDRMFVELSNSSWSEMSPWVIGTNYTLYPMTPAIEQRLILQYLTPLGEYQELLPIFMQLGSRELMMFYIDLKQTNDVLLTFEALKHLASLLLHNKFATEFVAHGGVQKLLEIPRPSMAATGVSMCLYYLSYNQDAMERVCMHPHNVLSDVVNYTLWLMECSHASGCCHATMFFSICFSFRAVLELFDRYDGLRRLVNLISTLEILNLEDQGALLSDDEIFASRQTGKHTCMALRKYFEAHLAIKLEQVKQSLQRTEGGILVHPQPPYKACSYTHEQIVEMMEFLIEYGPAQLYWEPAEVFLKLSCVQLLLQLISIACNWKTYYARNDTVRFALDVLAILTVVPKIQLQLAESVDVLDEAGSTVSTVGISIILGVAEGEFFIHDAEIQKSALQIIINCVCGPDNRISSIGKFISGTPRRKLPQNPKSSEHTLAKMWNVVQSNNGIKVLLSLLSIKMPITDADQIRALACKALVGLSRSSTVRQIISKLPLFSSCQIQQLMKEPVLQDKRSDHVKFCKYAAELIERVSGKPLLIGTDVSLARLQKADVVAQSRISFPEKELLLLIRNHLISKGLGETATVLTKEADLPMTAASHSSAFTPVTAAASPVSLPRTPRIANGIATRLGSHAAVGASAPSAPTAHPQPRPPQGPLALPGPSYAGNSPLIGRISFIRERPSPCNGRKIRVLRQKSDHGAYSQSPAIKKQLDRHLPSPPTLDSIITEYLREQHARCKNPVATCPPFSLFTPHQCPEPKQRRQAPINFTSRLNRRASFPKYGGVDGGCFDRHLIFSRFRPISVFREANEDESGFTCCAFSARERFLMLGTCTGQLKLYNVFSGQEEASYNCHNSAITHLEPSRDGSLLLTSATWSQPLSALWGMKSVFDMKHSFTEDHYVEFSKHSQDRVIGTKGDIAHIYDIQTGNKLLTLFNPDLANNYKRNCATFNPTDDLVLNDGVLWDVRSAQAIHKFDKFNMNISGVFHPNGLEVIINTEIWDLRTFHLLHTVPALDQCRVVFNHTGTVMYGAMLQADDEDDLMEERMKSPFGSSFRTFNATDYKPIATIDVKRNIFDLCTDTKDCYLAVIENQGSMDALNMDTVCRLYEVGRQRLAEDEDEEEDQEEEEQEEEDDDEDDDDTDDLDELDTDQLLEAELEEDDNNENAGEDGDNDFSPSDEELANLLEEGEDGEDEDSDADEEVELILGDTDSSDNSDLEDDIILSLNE

Legend:
Flag-Rheb = Flag-Rheb (UniProt Q15382); assay: co-IP; 293T cells transfected with empty vector, Flag-Rheb or Flag-DCAF1 for 48 h; NP-40 lysis buffer; IP with anti-Flag and agarose beads at 4 °C overnight; immunoblot of endogenous partners
[1] = biological target: Ras homologue enriched in brain (Rheb), endogenous (human (endogenous in HEK293T, Huh7, HCT116 and EC109)) (UniProt Q15382); assay: co-IP; endogenous proteins in Huh7, HCT116 and EC109 cells; NP-40 lysis buffer; IP with anti-Rheb or anti-DCAF1 and agarose beads at 4 °C overnight; unrelated IgG as negative control; immunoblot
[2] = biological target: DDB1-CUL4-associated factor 1 (DCAF1), endogenous (human (endogenous in HEK293T, Huh7, HCT116 and EC109)) (UniProt Q9Y4B6); assay: as above
Flag-DCAF1 = Flag-DCAF1 (UniProt Q9Y4B6); assay: co-IP; 293T cells transfected with empty vector, Flag-Rheb or Flag-DCAF1 for 48 h; NP-40 lysis buffer; IP with anti-Flag and agarose beads at 4 °C overnight; immunoblot of endogenous partners

Substance | binding (Flag-Rheb) | binding [1] | binding [2] | binding (Flag-DCAF1)
CUL4a, endogenous (from UniProt Q13619 1-759) | binds | – | – | –
DDB1, endogenous (from UniProt Q16531 1-1140) | binds | – | – | –
DDB1-CUL4-associated factor 1 (DCAF1), endogenous (from UniProt Q9Y4B6 1-1507) | binds | binds | – | –
Ras homologue enriched in brain (Rheb), endogenous (from UniProt Q15382 1-184) | – | – | binds | binds
